Data as given in PubChem BioAssay AID1259254 (NCATS, 2017).
Screen: 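Genome-wide screen for genes that prevent DNA re-replication in cancer cells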 (primary screen). System: human HCT116 colorectal cancer cells. Reagent: single siRNA against human genes. Duration: 3 days. Detection: 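Nuclei stained with Hoechst and imaged; cell-cycle phase assigned by DNA content; G2 share scaled per plate, non-targeting siRNA 0%, GMNN siRNA 100%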. Direction: G2 robust z-score and G2 cells, % of GMNN control: higher = more G2 cells, more excess DNA replication. Call rule: 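An siRNA counts as active if its G2 robust z-score lies at least 5 MADs above the screen median; here such calls match roughly 38% of GMNN control or more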.
Here is one part, drawn at random, of about 59,000 deposited reagents. In the full data, about 1,550 (2.6%) were called active. 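G2 share is only a proxy for re-replication; each gene was hit by three separate siRNAs, and active genes were retested.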 Reagents against one gene are numbered here. Further read-outs or replicates are left out here. Not stated in the record: the amount of reagent.

target gene	reagent no.	G2 robust z-score	G2 cells, % of GMNN control	Outcome
ARX	1	2.63	21.5	inactive
ARX	2	1.21	11.5	inactive
ARX	3	2.49	20.5	inactive
AKR7A3	1	-1.2	-5.5	inactive
AKR7A3	2	-0.582	-1.13	inactive
AKR7A3	3	0.107	3.72	inactive
TTLL1	1	3.39	26.8	inactive
TTLL1	2	-1.15	-5.14	inactive
TTLL1	3	3.49	27.6	inactive
GPR15	1	0.69	7.82	inactive
GPR15	2	-0.32	0.719	inactive
GPR15	3	1.38	12.7	inactive
MAP3K21	1	-0.74	-2.24	inactive
MAP3K21	2	-0.106	2.22	inactive
MAP3K21	3	-0.531	-0.765	inactive
LTN1	1	0.354	5.46	inactive
LTN1	2	-0.354	0.474	inactive
LTN1	3	-0.392	0.206	inactive
KCNJ2-AS1	1	0.255	4.76	inactive
KCNJ2-AS1	2	6.01	45.2	active
KCNJ2-AS1	3	-0.0578	2.56	inactive
ANKH	1	-0.759	-2.38	inactive
ANKH	2	-0.0195	2.83	inactive
ANKH	3	-0.0178	2.84	inactive
GLI4	1	1.41	12.9	inactive
GLI4	2	-0.0692	2.48	inactive
GLI4	3	-0.645	-1.57	inactive
RHBDL3	1	-0.48	-0.408	inactive
RHBDL3	2	4.08	31.7	inactive
RHBDL3	3	1.06	10.4	inactive
PPP2CA	1	0.364	5.53	inactive
PPP2CA	2	0.751	8.25	inactive
PPP2CA	3	0.409	5.85	inactive
NDUFS6	1	0.615	7.3	inactive
NDUFS6	2	-0.676	-1.79	inactive
NDUFS6	3	0.351	5.44	inactive
MDGA1	1	1	10	inactive
MDGA1	2	0.171	4.17	inactive
MDGA1	3	0.506	6.53	inactive

Single entries from the entries so far.
GLI4 #1, G2 cells, % of GMNN control → 12.9
Value for ARX #1 in “Outcome”: inactive
PPP2CA #3, G2 robust z-score: 0.409
Under “Outcome”, ARX #2 reads inactive
MAP3K21 #2, G2 cells, % of GMNN control = 2.22
Entry for TTLL1 #3 under “Outcome”: inactive

More reagents follow:
target gene	reagent no.	G2 robust z-score	G2 cells, % of GMNN control	Outcome
COL25A1	1	-0.812	-2.74	inactive
COL25A1	2	-0.17	1.77	inactive
COL25A1	3	1.15	11.1	inactive
ASCC3	1	2.57	21.1	inactive
ASCC3	2	0.104	3.7	inactive
ASCC3	3	-1.1	-4.77	inactive
KIF21A	1	0.37	5.57	inactive
KIF21A	2	-1.13	-4.95	inactive
KIF21A	3	-0.326	0.676	inactive
NRBF2	1	0.685	7.79	inactive
NRBF2	2	-0.759	-2.38	inactive
NRBF2	3	0.437	6.04	inactive
IGFBP3	1	-0.938	-3.63	inactive
IGFBP3	2	1.98	16.9	inactive
IGFBP3	3	-0.144	1.95	inactive
SMIM10L2A	1	2.7	22	inactive
SMIM10L2A	2	0.323	5.24	inactive
SMIM10L2A	3	0.362	5.51	inactive
SGCD	1	2.6	21.2	inactive
SGCD	2	-0.385	0.256	inactive
SGCD	3	-0.378	0.306	inactive
SHPRH	1	0.891	9.24	inactive
SHPRH	2	1.3	12.1	inactive
SHPRH	3	0.961	9.73	inactive
LOC644634	1	-0.885	-3.26	inactive
LOC644634	2	2.25	18.8	inactive
LOC644634	3	-1.3	-6.15	inactive
KLHL35	1	4.49	34.6	inactive
KLHL35	2	-0.0339	2.73	inactive
KLHL35	3	-0.402	0.138	inactive
